Experimental data: patent publication US7604949B2, “Methods and compositions that affect melanogenesis” (New York University, priority 1999, dated 2009)
Structures can show the parent of a compound that is named as a salt. For at least one compound, name, drawing or mass did not settle the structure.

How the values were obtained:
[1] = system: CD63/lamp3; conditions: cited from earlier work
[2] = system: late endosomal/lysosomal cholesterol trafficking; conditions: cited from earlier work
[3] = target: T1, tyrosinase (Mus musculus, UniProt P11344); type: cell-based; set-up: expressed in transfected cells; host or cells: COS cells (monkey kidney); conditions: 2.5 μM U18666A
T1 sequence (P11344 19-533): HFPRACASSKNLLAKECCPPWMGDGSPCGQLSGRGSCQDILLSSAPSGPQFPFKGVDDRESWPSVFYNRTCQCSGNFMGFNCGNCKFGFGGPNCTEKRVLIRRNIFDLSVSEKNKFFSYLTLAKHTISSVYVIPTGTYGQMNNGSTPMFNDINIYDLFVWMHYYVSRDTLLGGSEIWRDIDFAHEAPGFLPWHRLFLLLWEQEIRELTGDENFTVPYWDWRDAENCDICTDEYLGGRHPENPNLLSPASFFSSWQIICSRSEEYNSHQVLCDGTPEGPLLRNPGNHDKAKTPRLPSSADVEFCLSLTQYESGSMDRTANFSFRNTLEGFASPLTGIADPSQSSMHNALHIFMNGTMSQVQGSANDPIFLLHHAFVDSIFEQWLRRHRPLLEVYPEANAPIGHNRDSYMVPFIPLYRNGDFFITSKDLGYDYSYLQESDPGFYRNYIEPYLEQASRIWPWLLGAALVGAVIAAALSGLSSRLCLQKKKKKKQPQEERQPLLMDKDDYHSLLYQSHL

[4] = target: T2, NPC1 protein (Homo sapiens, UniProt O15118); conditions: cited from earlier work
T2 sequence (O15118 23-1278): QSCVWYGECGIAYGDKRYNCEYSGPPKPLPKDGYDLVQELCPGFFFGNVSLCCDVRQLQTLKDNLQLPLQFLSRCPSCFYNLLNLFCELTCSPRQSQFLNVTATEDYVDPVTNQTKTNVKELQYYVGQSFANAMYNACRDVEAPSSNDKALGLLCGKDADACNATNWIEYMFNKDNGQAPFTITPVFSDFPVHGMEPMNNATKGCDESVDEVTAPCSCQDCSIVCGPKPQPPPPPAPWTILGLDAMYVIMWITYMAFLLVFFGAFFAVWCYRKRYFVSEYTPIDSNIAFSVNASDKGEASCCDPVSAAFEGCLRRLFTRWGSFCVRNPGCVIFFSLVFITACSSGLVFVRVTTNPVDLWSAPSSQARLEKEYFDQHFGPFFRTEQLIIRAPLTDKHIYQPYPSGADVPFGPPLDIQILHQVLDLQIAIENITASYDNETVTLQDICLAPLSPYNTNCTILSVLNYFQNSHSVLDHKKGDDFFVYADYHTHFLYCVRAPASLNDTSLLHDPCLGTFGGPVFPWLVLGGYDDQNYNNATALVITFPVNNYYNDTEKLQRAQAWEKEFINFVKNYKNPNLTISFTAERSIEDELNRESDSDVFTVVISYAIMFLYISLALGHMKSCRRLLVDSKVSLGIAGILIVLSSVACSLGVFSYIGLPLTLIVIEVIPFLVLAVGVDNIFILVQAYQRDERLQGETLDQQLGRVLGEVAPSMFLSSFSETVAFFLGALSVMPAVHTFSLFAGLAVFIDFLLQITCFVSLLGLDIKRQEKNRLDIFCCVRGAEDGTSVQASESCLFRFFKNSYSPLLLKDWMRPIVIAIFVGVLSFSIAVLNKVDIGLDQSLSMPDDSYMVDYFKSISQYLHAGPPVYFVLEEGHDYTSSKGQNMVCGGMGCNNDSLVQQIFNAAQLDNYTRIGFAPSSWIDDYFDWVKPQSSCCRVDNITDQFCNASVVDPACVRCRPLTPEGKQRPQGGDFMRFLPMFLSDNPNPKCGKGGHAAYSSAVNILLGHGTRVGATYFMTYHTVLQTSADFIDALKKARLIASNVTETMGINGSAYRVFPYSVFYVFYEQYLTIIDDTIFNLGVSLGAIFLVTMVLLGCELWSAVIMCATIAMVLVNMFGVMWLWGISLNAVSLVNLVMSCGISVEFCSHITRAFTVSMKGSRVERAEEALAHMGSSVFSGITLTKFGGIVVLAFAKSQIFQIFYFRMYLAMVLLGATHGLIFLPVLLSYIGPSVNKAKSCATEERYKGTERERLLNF

Structure (SMILES): CCN(CC)CCO[C@H]1CC[C@@]2(C)C(=CC[C@@H]3[C@@H]2CC[C@]2(C)C(=O)CC[C@@H]32)C1 [U18666A, HCl]
- trafficking of CD63/lamp3 and IGF2/MPR [1]: alter the trafficking of CD63/lamp3
- cholesterol movement from the PM to the ER, from the late endosome/lysosome to the ER and to the PM [2]: inhibit cholesterol movement
- total amount of tyrosinase activity compared to control, untreated cells [3]: no significant difference
- trafficking of the NPC1 protein [4]: shifting the protein from late endosomes to the trans-Golgi network and lysosomes
